Results are given in words; binding and its absence hold for the method and conditions named. In cells and extracts the contact can be indirect. Here binding means that the protein was enriched with, or labelled near, the bait; the list need not be complete. Sequences can lack the tags named with a protein.
Biological target: T1, GADD45γ-Flag (UniProt O95257)
T1 sequence: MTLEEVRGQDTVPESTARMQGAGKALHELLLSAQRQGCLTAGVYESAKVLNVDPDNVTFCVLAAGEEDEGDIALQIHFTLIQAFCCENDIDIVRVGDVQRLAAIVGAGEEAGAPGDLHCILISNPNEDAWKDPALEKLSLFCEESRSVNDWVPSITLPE
Test: affinity purification with mass spectrometry; pull-down of GADD45 proteins from HEK 293T cells; eluate on SDS-polyacrylamide gel, prominent bands cut out, trypsin digest, mass spectrometry, ProFound

By UniProt entry, the sequences of proteins in these tests, tags left out. Residues count along the entry.
UniProt P21127, residues 357-795: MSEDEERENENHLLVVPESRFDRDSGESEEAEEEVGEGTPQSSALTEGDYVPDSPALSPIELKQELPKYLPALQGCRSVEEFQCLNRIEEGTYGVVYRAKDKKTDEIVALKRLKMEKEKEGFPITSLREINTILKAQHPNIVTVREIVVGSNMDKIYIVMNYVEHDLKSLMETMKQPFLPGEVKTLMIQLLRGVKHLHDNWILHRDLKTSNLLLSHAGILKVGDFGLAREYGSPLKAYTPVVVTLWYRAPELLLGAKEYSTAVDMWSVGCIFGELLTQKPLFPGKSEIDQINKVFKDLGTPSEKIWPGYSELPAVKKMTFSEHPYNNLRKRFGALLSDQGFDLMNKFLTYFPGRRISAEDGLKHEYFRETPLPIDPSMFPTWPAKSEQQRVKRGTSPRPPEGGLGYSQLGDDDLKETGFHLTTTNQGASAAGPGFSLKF

## CDK11p58 (from UniProt P21127-12 1-439)
  binding: binds

Reference: article PMC4924684
